This is an account of results in US20080166293A1.

The assay concerns the target human transferrin receptor (hTfR) (human) (UniProt P02786). Briefly: phage binding to CEF+hTfR versus CEF cells at 4 C, titer of eluted phage.

These are yes or no findings as the source states them, for the method shown. Some binding calls cover weakened binding; strength is not graded here.

As to HAIYPRH (peptide, not shown: large carriers) [HAIYPRH (Seq. ID No. 1) phage], the binding result is “binds”. Turning to THRPPMWSPVWP (peptide, not shown: large carriers) [… (Seq. ID No. 2) phage], the binding result was “binds”.
